From paper PMC12436307
These are yes or no findings as the source states them, for the method shown. A result given as binding can be weak or reduced; the word gives no strength.

Target: T1, LONESOME HIGHWAY (LHW) (Arabidopsis thaliana) (UniProt Q9XIN0)
T1 sequence: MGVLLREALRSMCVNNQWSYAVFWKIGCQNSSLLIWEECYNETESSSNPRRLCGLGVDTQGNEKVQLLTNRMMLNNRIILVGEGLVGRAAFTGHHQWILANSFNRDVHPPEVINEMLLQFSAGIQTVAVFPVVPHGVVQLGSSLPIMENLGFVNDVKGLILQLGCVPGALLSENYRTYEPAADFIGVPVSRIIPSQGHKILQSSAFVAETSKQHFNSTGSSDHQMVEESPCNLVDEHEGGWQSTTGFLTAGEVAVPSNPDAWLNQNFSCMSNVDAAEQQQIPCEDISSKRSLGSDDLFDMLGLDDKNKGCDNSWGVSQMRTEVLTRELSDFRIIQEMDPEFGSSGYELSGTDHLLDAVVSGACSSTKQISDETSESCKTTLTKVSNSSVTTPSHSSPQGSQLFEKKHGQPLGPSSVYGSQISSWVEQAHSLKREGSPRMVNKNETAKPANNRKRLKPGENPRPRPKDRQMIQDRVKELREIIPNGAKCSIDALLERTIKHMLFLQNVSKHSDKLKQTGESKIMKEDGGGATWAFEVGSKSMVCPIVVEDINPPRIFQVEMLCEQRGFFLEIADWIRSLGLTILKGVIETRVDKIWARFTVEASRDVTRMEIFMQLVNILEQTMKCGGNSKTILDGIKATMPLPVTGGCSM
Test: two-hybrid; Matchmaker Gold Yeast Two-Hybrid System; pGADT7 and pGBKT7 fusions; growth on SD -Leu -Trp -His -Ade with 3 mM 3AT, 30°C for 3 days

binding	Substance
binds	SACL2 (Arabidopsis thaliana)
binds	SACL1 (Arabidopsis thaliana)
binds	SACL3 (Arabidopsis thaliana)
